In the supplement of paper PMC12067093, “Discovery and optimisation of a covalent ligand for TRIM25 and its application to targeted protein ubiquitination” (Chemical Science, 2025):
The other results are listed elsewhere or left out.

Chains of the proteins cited; added tags and fusions are not shown. Lines headed by an entry give the natural chain unless they say otherwise; changes in a name come on top.
UniProt Q02447: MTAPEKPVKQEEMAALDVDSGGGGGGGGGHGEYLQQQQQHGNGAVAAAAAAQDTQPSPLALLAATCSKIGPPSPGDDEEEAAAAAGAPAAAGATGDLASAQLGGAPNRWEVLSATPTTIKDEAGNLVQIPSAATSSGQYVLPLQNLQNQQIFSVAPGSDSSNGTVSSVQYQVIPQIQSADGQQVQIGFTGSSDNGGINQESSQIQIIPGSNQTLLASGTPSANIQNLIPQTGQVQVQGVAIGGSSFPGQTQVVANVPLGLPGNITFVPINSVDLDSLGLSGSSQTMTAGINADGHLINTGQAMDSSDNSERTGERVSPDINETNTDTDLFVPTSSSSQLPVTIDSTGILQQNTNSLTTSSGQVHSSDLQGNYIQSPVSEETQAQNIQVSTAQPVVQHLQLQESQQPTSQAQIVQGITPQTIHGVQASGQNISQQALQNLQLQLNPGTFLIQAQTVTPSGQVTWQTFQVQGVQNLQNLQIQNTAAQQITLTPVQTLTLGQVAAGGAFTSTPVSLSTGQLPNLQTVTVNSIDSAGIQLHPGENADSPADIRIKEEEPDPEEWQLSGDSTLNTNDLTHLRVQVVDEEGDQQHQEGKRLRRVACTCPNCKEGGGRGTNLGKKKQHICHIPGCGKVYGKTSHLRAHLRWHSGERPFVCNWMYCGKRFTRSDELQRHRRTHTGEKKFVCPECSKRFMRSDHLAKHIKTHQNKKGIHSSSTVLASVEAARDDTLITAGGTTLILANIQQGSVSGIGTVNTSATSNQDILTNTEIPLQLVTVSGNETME
UniProt P30626: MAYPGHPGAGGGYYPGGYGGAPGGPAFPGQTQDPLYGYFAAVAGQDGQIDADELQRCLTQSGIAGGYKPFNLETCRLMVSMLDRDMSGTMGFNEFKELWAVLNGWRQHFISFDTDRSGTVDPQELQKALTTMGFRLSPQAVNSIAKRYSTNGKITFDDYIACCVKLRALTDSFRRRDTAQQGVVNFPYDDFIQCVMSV
UniProt O60749: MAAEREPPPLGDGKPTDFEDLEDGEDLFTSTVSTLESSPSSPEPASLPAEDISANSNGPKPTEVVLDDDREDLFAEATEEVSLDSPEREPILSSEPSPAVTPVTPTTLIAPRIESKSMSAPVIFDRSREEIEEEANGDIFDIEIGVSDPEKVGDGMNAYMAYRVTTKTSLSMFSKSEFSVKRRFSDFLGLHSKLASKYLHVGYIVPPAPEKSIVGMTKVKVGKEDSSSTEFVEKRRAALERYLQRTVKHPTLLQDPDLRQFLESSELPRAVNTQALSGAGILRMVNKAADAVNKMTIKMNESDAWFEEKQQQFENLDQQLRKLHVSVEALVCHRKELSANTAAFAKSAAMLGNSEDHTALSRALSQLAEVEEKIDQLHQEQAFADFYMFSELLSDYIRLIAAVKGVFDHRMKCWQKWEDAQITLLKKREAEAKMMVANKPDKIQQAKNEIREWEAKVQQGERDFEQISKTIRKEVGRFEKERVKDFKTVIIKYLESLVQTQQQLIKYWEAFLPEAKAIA
UniProt Q9Y5X1: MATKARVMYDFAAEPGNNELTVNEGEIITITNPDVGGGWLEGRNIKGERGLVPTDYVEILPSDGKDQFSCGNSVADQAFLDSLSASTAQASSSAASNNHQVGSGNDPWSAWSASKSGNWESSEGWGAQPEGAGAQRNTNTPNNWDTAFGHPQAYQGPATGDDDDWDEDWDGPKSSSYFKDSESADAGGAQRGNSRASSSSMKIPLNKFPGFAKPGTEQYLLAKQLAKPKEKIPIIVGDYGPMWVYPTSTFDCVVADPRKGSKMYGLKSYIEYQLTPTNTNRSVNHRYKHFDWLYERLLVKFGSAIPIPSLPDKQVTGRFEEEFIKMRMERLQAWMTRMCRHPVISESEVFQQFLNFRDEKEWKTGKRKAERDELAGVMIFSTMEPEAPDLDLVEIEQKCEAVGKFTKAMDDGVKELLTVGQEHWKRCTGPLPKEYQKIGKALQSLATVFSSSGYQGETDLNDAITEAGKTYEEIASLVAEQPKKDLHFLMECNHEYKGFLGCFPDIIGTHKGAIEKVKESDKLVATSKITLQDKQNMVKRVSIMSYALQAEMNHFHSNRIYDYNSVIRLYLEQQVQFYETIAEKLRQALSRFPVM
UniProt Q8N5C6: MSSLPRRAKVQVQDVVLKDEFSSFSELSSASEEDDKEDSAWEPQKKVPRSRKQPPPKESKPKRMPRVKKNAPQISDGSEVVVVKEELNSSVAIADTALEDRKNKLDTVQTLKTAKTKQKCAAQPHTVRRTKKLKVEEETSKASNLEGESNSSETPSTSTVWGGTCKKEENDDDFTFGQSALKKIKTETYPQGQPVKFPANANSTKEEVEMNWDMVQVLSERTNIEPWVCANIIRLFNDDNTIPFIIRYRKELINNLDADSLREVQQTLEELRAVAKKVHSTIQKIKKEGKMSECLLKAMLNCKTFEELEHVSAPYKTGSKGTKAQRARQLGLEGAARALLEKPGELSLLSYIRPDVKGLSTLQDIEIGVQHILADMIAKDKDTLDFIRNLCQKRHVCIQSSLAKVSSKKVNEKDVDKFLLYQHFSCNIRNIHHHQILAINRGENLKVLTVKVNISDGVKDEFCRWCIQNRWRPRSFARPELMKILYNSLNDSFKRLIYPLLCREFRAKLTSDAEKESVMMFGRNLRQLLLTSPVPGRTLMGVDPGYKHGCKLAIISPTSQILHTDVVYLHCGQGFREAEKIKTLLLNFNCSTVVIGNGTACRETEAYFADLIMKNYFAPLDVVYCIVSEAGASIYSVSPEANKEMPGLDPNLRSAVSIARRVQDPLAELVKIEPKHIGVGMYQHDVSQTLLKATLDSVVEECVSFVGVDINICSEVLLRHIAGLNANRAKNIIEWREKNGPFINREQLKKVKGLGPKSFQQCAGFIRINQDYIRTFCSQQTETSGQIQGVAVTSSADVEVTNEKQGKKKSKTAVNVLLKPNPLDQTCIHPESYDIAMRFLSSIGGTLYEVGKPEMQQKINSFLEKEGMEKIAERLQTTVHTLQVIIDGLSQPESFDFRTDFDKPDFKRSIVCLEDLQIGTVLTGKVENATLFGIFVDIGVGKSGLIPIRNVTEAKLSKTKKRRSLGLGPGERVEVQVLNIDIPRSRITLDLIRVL
UniProt Q92673: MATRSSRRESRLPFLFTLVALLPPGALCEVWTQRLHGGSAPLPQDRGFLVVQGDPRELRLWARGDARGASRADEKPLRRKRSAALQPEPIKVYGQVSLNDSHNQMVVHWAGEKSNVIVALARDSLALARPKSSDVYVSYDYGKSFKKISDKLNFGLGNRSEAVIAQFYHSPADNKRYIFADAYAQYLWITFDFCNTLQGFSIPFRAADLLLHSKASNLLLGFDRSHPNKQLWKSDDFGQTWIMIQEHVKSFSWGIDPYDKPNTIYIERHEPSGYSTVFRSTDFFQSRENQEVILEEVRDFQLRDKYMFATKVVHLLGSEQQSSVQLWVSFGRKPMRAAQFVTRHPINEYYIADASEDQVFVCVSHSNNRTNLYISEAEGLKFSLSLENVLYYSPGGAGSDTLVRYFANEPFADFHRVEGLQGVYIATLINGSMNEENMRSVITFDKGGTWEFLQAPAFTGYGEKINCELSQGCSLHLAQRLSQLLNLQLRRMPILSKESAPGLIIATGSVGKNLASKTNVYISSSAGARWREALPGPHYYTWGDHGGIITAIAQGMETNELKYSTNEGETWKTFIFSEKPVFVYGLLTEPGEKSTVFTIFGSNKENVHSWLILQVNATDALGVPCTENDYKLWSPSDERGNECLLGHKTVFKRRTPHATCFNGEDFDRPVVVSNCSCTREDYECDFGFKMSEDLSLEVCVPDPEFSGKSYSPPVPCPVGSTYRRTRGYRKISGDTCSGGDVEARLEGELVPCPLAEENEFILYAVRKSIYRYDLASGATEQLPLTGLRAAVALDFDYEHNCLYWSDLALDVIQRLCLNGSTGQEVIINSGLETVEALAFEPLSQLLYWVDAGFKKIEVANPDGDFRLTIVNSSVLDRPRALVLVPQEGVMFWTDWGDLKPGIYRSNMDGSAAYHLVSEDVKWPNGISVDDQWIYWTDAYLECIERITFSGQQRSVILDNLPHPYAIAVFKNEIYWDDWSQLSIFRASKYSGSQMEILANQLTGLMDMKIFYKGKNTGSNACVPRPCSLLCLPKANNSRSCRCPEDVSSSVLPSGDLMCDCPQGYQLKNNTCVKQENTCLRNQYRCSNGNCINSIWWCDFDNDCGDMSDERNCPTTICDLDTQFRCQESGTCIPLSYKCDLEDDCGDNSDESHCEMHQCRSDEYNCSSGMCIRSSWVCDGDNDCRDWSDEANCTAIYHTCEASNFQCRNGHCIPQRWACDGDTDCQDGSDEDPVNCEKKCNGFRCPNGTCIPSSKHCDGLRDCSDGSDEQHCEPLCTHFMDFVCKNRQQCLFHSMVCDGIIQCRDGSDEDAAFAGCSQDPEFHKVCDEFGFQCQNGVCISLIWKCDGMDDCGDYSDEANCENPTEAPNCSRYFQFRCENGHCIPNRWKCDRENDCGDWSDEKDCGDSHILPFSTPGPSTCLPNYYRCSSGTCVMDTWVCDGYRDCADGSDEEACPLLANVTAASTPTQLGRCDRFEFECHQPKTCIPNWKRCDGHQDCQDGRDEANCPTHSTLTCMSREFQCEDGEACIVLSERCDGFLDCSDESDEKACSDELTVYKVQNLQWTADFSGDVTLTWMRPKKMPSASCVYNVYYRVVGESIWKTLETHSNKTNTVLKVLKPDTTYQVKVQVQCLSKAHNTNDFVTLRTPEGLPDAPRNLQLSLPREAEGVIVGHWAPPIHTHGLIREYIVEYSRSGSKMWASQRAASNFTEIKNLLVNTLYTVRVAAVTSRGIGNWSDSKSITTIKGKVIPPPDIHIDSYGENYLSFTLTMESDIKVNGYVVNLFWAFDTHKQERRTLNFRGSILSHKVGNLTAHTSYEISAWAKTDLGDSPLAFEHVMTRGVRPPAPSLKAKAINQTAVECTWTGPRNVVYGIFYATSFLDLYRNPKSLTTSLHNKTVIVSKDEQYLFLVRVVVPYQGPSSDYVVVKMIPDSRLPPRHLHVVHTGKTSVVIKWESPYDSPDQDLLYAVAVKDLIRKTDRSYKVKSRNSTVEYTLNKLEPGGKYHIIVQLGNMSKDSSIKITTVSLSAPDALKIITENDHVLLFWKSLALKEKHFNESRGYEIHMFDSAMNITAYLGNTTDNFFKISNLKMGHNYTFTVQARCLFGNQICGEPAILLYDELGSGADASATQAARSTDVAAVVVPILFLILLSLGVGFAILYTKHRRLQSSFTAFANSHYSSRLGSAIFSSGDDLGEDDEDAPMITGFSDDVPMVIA
UniProt Q9UNH7: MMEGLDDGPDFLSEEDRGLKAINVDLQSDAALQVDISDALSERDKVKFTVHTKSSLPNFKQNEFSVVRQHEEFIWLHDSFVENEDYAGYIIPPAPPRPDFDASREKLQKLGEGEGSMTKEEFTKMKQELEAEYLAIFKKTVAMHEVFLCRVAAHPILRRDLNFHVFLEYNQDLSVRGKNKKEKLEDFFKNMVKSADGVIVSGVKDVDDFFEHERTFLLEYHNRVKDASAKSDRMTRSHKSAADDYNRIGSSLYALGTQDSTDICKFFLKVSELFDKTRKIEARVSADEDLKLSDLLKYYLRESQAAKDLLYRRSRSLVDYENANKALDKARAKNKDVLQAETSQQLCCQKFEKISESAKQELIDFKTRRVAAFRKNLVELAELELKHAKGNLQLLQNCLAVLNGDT
UniProt Q9NUQ6: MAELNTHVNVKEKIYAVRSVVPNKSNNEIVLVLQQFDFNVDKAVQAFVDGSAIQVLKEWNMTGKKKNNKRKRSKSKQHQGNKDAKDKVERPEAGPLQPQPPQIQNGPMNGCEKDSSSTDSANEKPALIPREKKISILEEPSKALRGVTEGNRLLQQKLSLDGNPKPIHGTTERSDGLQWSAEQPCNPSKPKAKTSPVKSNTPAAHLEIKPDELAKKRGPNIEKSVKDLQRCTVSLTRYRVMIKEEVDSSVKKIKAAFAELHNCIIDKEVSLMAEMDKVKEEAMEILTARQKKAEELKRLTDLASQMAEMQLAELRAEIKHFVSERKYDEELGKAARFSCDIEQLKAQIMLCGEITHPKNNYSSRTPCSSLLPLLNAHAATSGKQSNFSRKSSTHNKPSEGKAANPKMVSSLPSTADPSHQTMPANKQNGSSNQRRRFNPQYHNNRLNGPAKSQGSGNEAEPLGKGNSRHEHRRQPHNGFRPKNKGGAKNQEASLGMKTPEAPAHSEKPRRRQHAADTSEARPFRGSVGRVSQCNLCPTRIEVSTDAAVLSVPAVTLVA
UniProt Q9Y5M8: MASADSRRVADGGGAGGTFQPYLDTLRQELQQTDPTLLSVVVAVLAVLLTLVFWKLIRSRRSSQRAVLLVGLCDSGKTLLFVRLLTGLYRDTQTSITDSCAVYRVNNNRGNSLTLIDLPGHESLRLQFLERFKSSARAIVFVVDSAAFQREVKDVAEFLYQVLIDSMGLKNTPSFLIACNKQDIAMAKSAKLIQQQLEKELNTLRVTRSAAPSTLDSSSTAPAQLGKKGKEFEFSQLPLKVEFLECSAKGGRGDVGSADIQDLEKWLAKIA

Compound: Cc1cc(ccc1-c1ccccc1)C(=O)N1CCCN(CC1)C(=O)CCl [compound 10]
Assay: probe-labelled cysteine peptide fold change vs DMSO (competition) (log2 fold change); higher = less target engagement (more negative = stronger competition)
Details: THP-1, incubation time: 4 h
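Also: competitive profiling in live THP-1 cells: cysteine peptides tagged with an iodoacetamide desthiobiotin (IA-DTB) probe, intensity after compound treatment relative to DMSO-treated cells.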

Row | Target | probe-labelled cysteine peptide fold change (10 µM) | probe-labelled cysteine peptide fold change (50 µM)
1 | SP3_Q02447_683+686_KFVCPECSK (UniProt Q02447) | -0.0874 | -0.285
2 | SNX14_Q9Y5W7_732_GQHLEPFIMNFINSCESPKPK (UniProt Q9Y5W7) | -0.0439 | -0.0904
3 | SRP72_O76094_128_YDECLAVYR (UniProt O76094) | 0.162 | 0.0565
4 | SOS1_Q07889_838_CIVETENLEER (UniProt Q07889) | 0.113 | 0.392
5 | SORD_Q00796_301_YCNTWPVAISMLASK (UniProt Q00796) | 0.251 | 0.115
6 | SRP19_P09132_53_AVENPTATEIQDVCSAVGLNVFLEK (UniProt P09132) | 0.00125 | 0.052
7 | SRI_P30626_162_ITFDDYIACCVK (UniProt P30626) | 0.0614 | -0.143
8 | SQOR_Q9Y6N5_337_RYPNVFGIGDCTNLPTSK (UniProt Q9Y6N5) | -0.0864 | 0.00585
9 | SNX2_O60749_332_LHVSVEALVCHR (UniProt O60749) | -0.15 | -0.341
10 | SNX9_Q9Y5X1_427_CTGPLPK (UniProt Q9Y5X1) | -0.0239 | -0.209
11 | SRBD1_Q8N5C6_827_TAVNVLLKPNPLDQTCIHPESYDIAMR (UniProt Q8N5C6) | -0.0262 | 0.0387
12 | SPTBN1_Q01082_964_DALLSALSIQNYHLECNETK (UniProt Q01082) | 0.226 | 0.0494
13 | SNX16_P57768_230_AFCETLEETNYR (UniProt P57768) | -0.196 | -0.00342
14 | SPOUT1_Q5T280_10_RPCGPGEHGQR (UniProt Q5T280) | -0.19 | 0.0479
15 | SORL1_Q92673_1484_TCIPNWK (UniProt Q92673) | -0.439 | -0.395
16 | SP1_P08047_606_EACTCPYCK (UniProt P08047) | 0.251 | 0.637
17 | SNX6_Q9UNH7_149_TVAMHEVFLCR (UniProt Q9UNH7) | -0.37 | -1.4
18 | SNU13_P55769_93+102_ACGVSRPVIACSVTIK (UniProt P55769) | 0.229 | -0.0692
19 | SPTLC1_O15269_133_YGVGTCGPR (UniProt O15269) | -0.178 | -0.348
20 | SPCS2_Q15005_17+26_SGGSGGCSGAGGASNCGTGSGR (UniProt Q15005) | -0.494 | -1.1
21 | SORBS3_O60504_645_EGDRVDVMQQCDDGWFVGVSR (UniProt O60504) | -0.0836 | -0.33
22 | SORL1_Q92673_736_ISGDTCSGGDVEAR (UniProt Q92673) | -0.187 | -0.179

Row | Target | probe-labelled cysteine peptide fold change (10 µM) | probe-labelled cysteine peptide fold change (50 µM)
23 | SRBD1_Q8N5C6_397_HVCIQSSLAK (UniProt Q8N5C6) | -0.0282 | -0.148
24 | SRGAP2_O75044_486_TDCSLAR (UniProt O75044) | -0.256 | -0.689
25 | SNX5_Q9Y5X3_346_LAEAHQQECCQK (UniProt Q9Y5X3) | -0.101 | -0.226
26 | SQSTM1_Q13501_131_NMVHPNVICDGCNGPVVGTR (UniProt Q13501) | 0.13 | -0.625
27 | SPATS2L_Q9NUQ6_367_TPCSSLLPLLNAHAATSGK (UniProt Q9NUQ6) | -0.195 | -0.416
28 | SPPL2B_Q8TCT7_45_DYCILYNPQWAHLPHDLSK (UniProt Q8TCT7) | 0.0757 | -0.119
29 | SPC25_Q9HBM1_27_STDTSCQMAGLR (UniProt Q9HBM1) | -0.206 | -0.376
30 | SP100_P23497_373_EGQEATCSRPQIVPEPMDFRK (UniProt P23497) | -0.194 | -0.491
31 | SPAG5_Q96R06_907_TEQETLLLSTACPPTQEHPLPNDR (UniProt Q96R06) | -0.115 | 0.0555
32 | SPAG7_O75391_191_TYGCVPVANKR (UniProt O75391) | -0.315 | -0.53
33 | SORL1_Q92673_643_LWSPSDERGNECLLGHK (UniProt Q92673) | -0.257 | -0.573
34 | SREK1_Q8WXA9-2_96_ALIVVPCAEGK (UniProt Q8WXA9) | -0.00998 | 0.0383
35 | SRPRA_P08240_25_GGLVLWCFQGVSDSCTGPVNALIR (UniProt P08240) | 0.101 | 0.155
36 | SPATS2L_Q9NUQ6_263_AAFAELHNCIIDK (UniProt Q9NUQ6) | 0.172 | 0.125
37 | SPAG9_O60271_761_NQEELSSLVWICTSTHSATK (UniProt O60271) | 0.263 | 0.124
38 | SORD_Q00796_179_VLVCGAGPIGMVTLLVAK (UniProt Q00796) | -0.0988 | -1.77
39 | SNX18_Q96RF0-2_570_CNTISFATLAEIHHFHQIR (UniProt Q96RF0) | 0.117 | 0.283
40 | SRPK2_P78362_320_IIEENITSAAPSNDQDGEYCPEVK (UniProt P78362) | -0.0943 | 0.0113
41 | SRP72_O76094_323_ALLAMYTNQAEQCR (UniProt O76094) | -0.0676 | -0.0424
42 | SPTAN1_Q13813_1622_GACAGSEDAVK (UniProt Q13813) | 0.207 | 0.0757
43 | SPTBN1_Q01082_861_MFSEADACELWIDEK (UniProt Q01082) | -0.053 | 0.00371
44 | SREBF2_Q12772_832_AGDQEEESCEFSSALEYLK (UniProt Q12772) | 0.0639 | -0.629

Row | Target | probe-labelled cysteine peptide fold change (10 µM) | probe-labelled cysteine peptide fold change (50 µM)
45 | SNX32_Q86XE0_237_CLADDYIPISAALSSLGTQEVNQLR (UniProt Q86XE0) | -0.211 | -0.0413
46 | SNX6_Q9UNH7_347+348_DVLQAETSQQLCCQK (UniProt Q9UNH7) | -0.288 | -0.619
47 | SQOR_Q9Y6N5_127_NCIHTDDDEK (UniProt Q9Y6N5) | -0.185 | -0.0351
48 | SNX27_Q96L92_519_VFCELK (UniProt Q96L92) | -0.256 | -0.213
49 | SPECC1_Q5M775_598_DLLELSCNELR (UniProt Q5M775) | 0.311 | 0.0805
50 | SNX8_Q9Y5X2_200_ESAQCVGDEFLNCK (UniProt Q9Y5X2) | -0.32 | -0.983
51 | SPAG1_Q07617_825_EACAHLLAITAPK (UniProt Q07617) | -0.0854 | -0.173
52 | SRM_P19623_25_ETCSLWPGQALSLQVEQLLHHRR (UniProt P19623) | -0.0204 | 0.0529
53 | SNX9_Q9Y5X1_399_CEAVGK (UniProt Q9Y5X1) | -0.165 | -0.103
54 | SRBD1_Q8N5C6_571_LAIISPTSQILHTDVVYLHCGQGFR (UniProt Q8N5C6) | 0.207 | -0.0215
55 | SPTBN1_Q01082_1900_SLLDACESR (UniProt Q01082) | 0.136 | 0.207
56 | SNX27_Q96L92_513_IFTPYFNYMHECFER (UniProt Q96L92) | 0.116 | 0.4
57 | SNUPN_O95149_356_GSSHSPDHPGCLMEN (UniProt O95149) | -0.229 | -0.623
58 | SNRPD3_P62318_41_LIEAEDNMNCQMSNITVTYRDGR (UniProt P62318) | 0.0222 | -0.54
59 | SPATA20_Q8TB22_721_ALVQCVHSVYIPNK (UniProt Q8TB22) | 0.0848 | -0.0853
60 | SRBD1_Q8N5C6_397_RHVCIQSSLAK (UniProt Q8N5C6) | -0.164 | -0.138
61 | SPATS2L_Q9NUQ6_111_DKVERPEAGPLQPQPPQIQNGPMNGCEK (UniProt Q9NUQ6) | -0.0498 | -0.417
62 | SPTAN1_Q13813_1930_DRVNDVCTNGQDLIK (UniProt Q13813) | 0.044 | 0.368
63 | SOD1_P00441_112_HVGDLGNVTADKDGVADVSIEDSVISLSGDHCIIGR (UniProt P00441) | -0.102 | -0.454
64 | SPG21_Q9NZD8_204_LTLNCQNSYVEPHK (UniProt Q9NZD8) | -0.303 | -0.246
65 | SNX5_Q9Y5X3_250_NVADDYIHTAACLHSLALEEPTVIK (UniProt Q9Y5X3) | -0.216 | -0.0124
66 | SPTAN1_Q13813_2120_CNSLEEIK (UniProt Q13813) | -0.0272 | -0.0027

Shown as labelled records: part of the list above.
SNX2_O60749_332_LHVSVEALVCHR (UniProt O60749)
  probe-labelled cysteine peptide fold change (10 µM): -0.15
  probe-labelled cysteine peptide fold change (50 µM): -0.341
SPTBN1_Q01082_964_DALLSALSIQNYHLECNETK (UniProt Q01082)
  probe-labelled cysteine peptide fold change (10 µM): 0.226
  probe-labelled cysteine peptide fold change (50 µM): 0.0494
SORL1_Q92673_736_ISGDTCSGGDVEAR (UniProt Q92673)
  probe-labelled cysteine peptide fold change (10 µM): -0.187
  probe-labelled cysteine peptide fold change (50 µM): -0.179
SPAG5_Q96R06_907_TEQETLLLSTACPPTQEHPLPNDR (UniProt Q96R06)
  probe-labelled cysteine peptide fold change (10 µM): -0.115
  probe-labelled cysteine peptide fold change (50 µM): 0.0555

(listing goes on)

Row | Target | probe-labelled cysteine peptide fold change (10 µM) | probe-labelled cysteine peptide fold change (50 µM)
67 | SPATA5L1_Q9BVQ7_104_LLLVPCPPLRR (UniProt Q9BVQ7) | 0.19 | 0.0616
68 | SRP72_O76094_323_ALLAMYTNQAEQCRK (UniProt O76094) | -0.265 | -0.447
69 | SQOR_Q9Y6N5_201_CAGAPQK (UniProt Q9Y6N5) | -0.191 | -0.122
70 | SRI_P30626_75_CLTQSGIAGGYKPFNLETCR (UniProt P30626) | 0.349 | 0.00534
71 | SP1_P08047_633_QHICHIQGCGK (UniProt P08047) | 0.0101 | -0.0604
72 | SP3_Q02447_623+628_KQHICHIPGCGK (UniProt Q02447) | 0.0494 | -0.374
73 | SRP68_Q9UHB9_344_LFESMLSECR (UniProt Q9UHB9) | 0.00902 | 0.163
74 | SRPRA_P08240_424_RQRPYVVTFCGVNGVGK (UniProt P08240) | -0.134 | 0.168
75 | SNX3_O60493_140_CLHMFLQDEIIDK (UniProt O60493) | -0.0431 | -0.235
76 | SPECC1_Q5M775_740_CEAQQELR (UniProt Q5M775) | 0.0327 | 0.182
77 | SNX20_Q7Z614_236_LTAHCPAAAVPALCAVLLCHR (UniProt Q7Z614) | -0.104 | -0.142
78 | SPAG9_O60271_689_LWCAVGVNLSGGK (UniProt O60271) | -0.0189 | -0.0339
79 | SRPRA_P08240_253_VWELGGCANK (UniProt P08240) | -0.192 | -0.783
80 | SRPRB_Q9Y5M8_246_EFEFSQLPLKVEFLECSAK (UniProt Q9Y5M8) | -0.354 | -1.1
81 | SPTLC2_O15270_188_NTGSCQEAAAK (UniProt O15270) | 0.142 | 0.0919
82 | SPECC1_Q5M775_633_EICDHQAEQLSR (UniProt Q5M775) | -0.0408 | 0.112
83 | SPR_P35270_159_TVVNISSLCALQPFK (UniProt P35270) | -0.0109 | -0.165
84 | SNX14_Q9Y5W7_857_DAIFCENTEPR (UniProt Q9Y5W7) | -0.187 | -0.196
85 | SPECC1_Q5M775_493_LLNIQQQLTCSLR (UniProt Q5M775) | -0.0188 | -0.495
